# From the supplement of paper PMC8728848
# Some of the results follow.
# B1: B936 (Bifidobacterium sp) (protein)
# chain: MKNWKKAIALVASAAALVSVAACGPSNAGGSSDSGKKTVGFVAVGPEGGFRTANEKDIQKAFEDAGFDLTYSPTQNNDQQKQIQAFNKFVNDEVDAIILSSTEDSGWDDSLKKAAEAEIPVFTVDRNVDVKDAEAKKAIVAHIGPSNVWCGEQAAEFVNKNFPDGANGFILEGPAGLSVVKDRGTGWGNKVASNVKVLESQSANWSTDEAKTVTAGLLDKYKSDNPQFIFAQNDEMGLGAAQAVDAAGLKGKVKIITIDGTKNALQALVDGDLSYVIEYNPIFGKETAQAVKDYLDGKTVEKDIEIESKTFDAASAKEALDNNTRAY
# Experiments:
# Assay in all cases: glycan array binding signal (z-score within array); higher = stronger binding
# Details in all cases: glycan notation: IUPAC condensed, linker removed
# [1] = target: Neu5Ac(a2-3)Gal(b1-3)GlcNAc(b1-2)Man
# Outline: (§1)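 The Consortium for Functional Glycomics database supplied 3228 glycan arrays, of which those lacking an available protein sequence were dropped. The binding signal, a within-array Z-score, was averaged across arrays of the same protein sequence and across linkers. Negative scores can be read as non-binding.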
# [2] = target: Neu5Ac(a2-3)Gal(b1-3)GlcNAc(b1-2)Man(a1-3)[GlcNAc(b1-4)][Neu5Ac(a2-3)Gal(b1-3)GlcNAc(b1-2)Man(a1-6)]Man(b1-4)GlcNAc(b1-4)GlcNAc
# Outline: as §1
# [3] = target: Neu5Ac(a2-3)Gal(b1-3)GlcNAc(b1-2)Man(a1-3)[Neu5Ac(a2-3)Gal(b1-3)GlcNAc(b1-2)Man(a1-6)]Man(b1-4)GlcNAc(b1-4)GlcNAc
# Outline: as §1
# [4] = target: Neu5Ac(a2-3)Gal(b1-3)GlcNAc(b1-2)[Neu5Ac(a2-3)Gal(b1-3)GlcNAc(b1-4)]Man(a1-6)[Neu5Ac(a2-3)Gal(b1-3)GlcNAc(b1-2)Man(a1-3)]Man(b1-4)GlcNAc(b1-4)GlcNAc
# Outline: as §1
# [5] = target: Neu5Ac(a2-3)Gal(b1-3)GlcNAc(b1-3)Gal(b1-3)GlcNAc
# Outline: as §1
# [6] = target: Neu5Ac(a2-3)Gal(b1-3)GlcNAc(b1-3)Gal(b1-4)GlcNAc
# Outline: as §1
# [7] = target: Neu5Ac(a2-3)Gal(b1-3)GlcNAc(b1-3)GalNAc
# Outline: as §1
# [8] = target: Neu5Ac(a2-3)Gal(b1-3)GlcNAc(b1-6)GalNAc
# Outline: as §1
# [9] = target: Neu5Ac(a2-3)Gal(b1-3)GlcNAc6S
# Outline: as §1
# [10] = target: Neu5Ac(a2-3)Gal(b1-3)[Fuc(a1-4)]GlcNAc
# Outline: as §1
# [11] = target: Neu5Ac(a2-3)Gal(b1-3)[Fuc(a1-4)]GlcNAc(b1-3)Gal(b1-3)[Fuc(a1-4)]GlcNAc
# Outline: as §1
# [12] = target: Neu5Ac(a2-3)Gal(b1-3)[Fuc(a1-4)]GlcNAc(b1-3)Gal(b1-4)[Fuc(a1-3)]GlcNAc
# Outline: as §1
# [13] = target: Neu5Ac(a2-3)Gal(b1-3)[GlcNAc(b1-6)]GalNAc
# Outline: as §1
# [14] = target: Neu5Ac(a2-3)Gal(b1-3)[Neu5Ac(a2-6)]GalNAc
# Outline: as §1
# [15] = target: Neu5Ac(a2-3)Gal(b1-3)[Neu5Ac(a2-6)]GlcNAc(b1-3)[Fuc(a1-3)[Gal(b1-4)]GlcNAc(b1-6)]Gal(b1-4)Glc
# Outline: as §1
# [16] = target: Neu5Ac(a2-3)Gal(b1-3)]Neu5Ac(a2-3)Gal(b1-4)]GlcNAc
# Outline: as §1
# [17] = target: Neu5Ac(a2-3)Gal(b1-4)Glc
# Outline: as §1
# [18] = target: Neu5Ac(a2-3)Gal(b1-4)GlcNAc
# Outline: as §1
# [19] = target: Neu5Ac(a2-3)Gal(b1-4)GlcNAc(b1-2)Man
# Outline: as §1
# [20] = target: Neu5Ac(a2-3)Gal(b1-4)GlcNAc(b1-2)Man(a1-3)[GlcNAc(b1-4)][Neu5Ac(a2-3)Gal(b1-4)GlcNAc(b1-2)Man(a1-6)]Man(b1-4)GlcNAc(b1-4)GlcNAc
# Outline: as §1
# [21] = target: Neu5Ac(a2-3)Gal(b1-4)GlcNAc(b1-2)Man(a1-3)[Neu5Ac(a2-3)Gal(b1-4)GlcNAc(b1-2)Man(a1-6)]Man(b1-4)GlcNAc(b1-4)GlcNAc
# Outline: as §1
# [22] = target: Neu5Ac(a2-3)Gal(b1-4)GlcNAc(b1-2)Man(a1-3)[Neu5Ac(a2-3)Gal(b1-4)GlcNAc(b1-2)Man(a1-6)]Man(b1-4)GlcNAc(b1-4)[Fuc(a1-6)]GlcNAc
# Outline: as §1
# [23] = target: Neu5Ac(a2-3)Gal(b1-4)GlcNAc(b1-2)Man(a1-3)[Neu5Ac(a2-6)Gal(b1-4)GlcNAc(b1-2)Man(a1-6)]Man(b1-4)GlcNAc(b1-4)GlcNAc
# Outline: as §1
# [24] = target: Neu5Ac(a2-3)Gal(b1-4)GlcNAc(b1-2)[Neu5Ac(a2-3)Gal(b1-4)GlcNAc(b1-4)]Man(a1-3)[GlcNAc(b1-4)][Neu5Ac(a2-3)Gal(b1-4)GlcNAc(b1-2)[Neu5Ac(a2-3)Gal(b1-4)GlcNAc(b1-6)]Man(a1-6)]Man(b1-4)GlcNAc(b1-4)GlcNAc
# Outline: as §1
# [25] = target: Neu5Ac(a2-3)Gal(b1-4)GlcNAc(b1-2)[Neu5Ac(a2-3)Gal(b1-4)GlcNAc(b1-4)]Man(a1-3)[GlcNAc(b1-4)][Neu5Ac(a2-3)Gal(b1-4)GlcNAc(b1-4)Man(a1-6)]Man(b1-4)GlcNAc(b1-4)GlcNAc
# Outline: as §1
# [26] = target: Neu5Ac(a2-3)Gal(b1-4)GlcNAc(b1-2)[Neu5Ac(a2-3)Gal(b1-4)GlcNAc(b1-6)]Man(a1-6)[Neu5Ac(a2-3)Gal(b1-4)GlcNAc(b1-2)Man(a1-3)][GlcNAc(b1-4)]Man(b1-4)GlcNAc(b1-4)GlcNAc
# Outline: as §1
# [27] = target: Neu5Ac(a2-3)Gal(b1-4)GlcNAc(b1-3)Gal
# Outline: as §1
# [28] = target: Neu5Ac(a2-3)Gal(b1-4)GlcNAc(b1-3)Gal(b1-3)GlcNAc
# Outline: as §1
# [29] = target: Neu5Ac(a2-3)Gal(b1-4)GlcNAc(b1-3)Gal(b1-4)GlcNAc
# Outline: as §1
# [30] = target: Neu5Ac(a2-3)Gal(b1-4)GlcNAc(b1-3)Gal(b1-4)GlcNAc(b1-2)Man(a1-3)[Neu5Ac(a2-3)Gal(b1-4)GlcNAc(b1-3)Gal(b1-4)GlcNAc(b1-2)Man(a1-6)]Man(b1-4)GlcNAc(b1-4)GlcNAc
# Outline: as §1
# [31] = target: Neu5Ac(a2-3)Gal(b1-4)GlcNAc(b1-3)Gal(b1-4)GlcNAc(b1-3)Gal(b1-4)GlcNAc
# Outline: as §1
# [32] = target: Neu5Ac(a2-3)Gal(b1-4)GlcNAc(b1-3)Gal(b1-4)GlcNAc(b1-3)Gal(b1-4)GlcNAc(b1-2)Man(a1-3)[Neu5Ac(a2-3)Gal(b1-4)GlcNAc(b1-3)Gal(b1-4)GlcNAc(b1-3)Gal(b1-4)GlcNAc(b1-2)Man(a1-6)]GalNAc
# Outline: as §1
# [33] = target: Neu5Ac(a2-3)Gal(b1-4)GlcNAc(b1-3)Gal(b1-4)GlcNAc(b1-3)GalNAc
# Outline: as §1
# [34] = target: Neu5Ac(a2-3)Gal(b1-4)GlcNAc(b1-3)Gal(b1-4)GlcNAc(b1-3)[Neu5Ac(a2-3)Gal(b1-4)GlcNAc(b1-3)Gal(b1-4)GlcNAc(b1-6)]GalNAc
# Outline: as §1
# [35] = target: Neu5Ac(a2-3)Gal(b1-4)GlcNAc(b1-3)Gal(b1-4)GlcNAc(b1-6)[Gal(b1-3)]GalNAc
# Outline: as §1
# [36] = target: Neu5Ac(a2-3)Gal(b1-4)GlcNAc(b1-3)Gal(b1-4)[Fuc(a1-3)]GlcNAc
# Outline: as §1
# [37] = target: Neu5Ac(a2-3)Gal(b1-4)GlcNAc(b1-3)GalNAc
# Outline: as §1
# [38] = target: Neu5Ac(a2-3)Gal(b1-4)GlcNAc(b1-3)[Neu5Ac(a2-3)Gal(b1-4)GlcNAc(b1-6)]GalNAc
# Outline: as §1
binder,measurement,setting,value
B1,glycan array binding signal (z-score),[1],0.307
same,glycan array binding signal (z-score),[2],0.078
same,glycan array binding signal (z-score),[3],0.001
same,glycan array binding signal (z-score),[4],0.786
same,glycan array binding signal (z-score),[5],-0.504
same,glycan array binding signal (z-score),[6],-0.335
same,glycan array binding signal (z-score),[7],0.225
same,glycan array binding signal (z-score),[8],0.636
same,glycan array binding signal (z-score),[9],-0.818
same,glycan array binding signal (z-score),[10],-0.033
same,glycan array binding signal (z-score),[11],-0.339
same,glycan array binding signal (z-score),[12],0.193
same,glycan array binding signal (z-score),[13],-0.81
same,glycan array binding signal (z-score),[14],-0.159
same,glycan array binding signal (z-score),[15],0.012
same,glycan array binding signal (z-score),[16],-0.582
same,glycan array binding signal (z-score),[17],0.008
same,glycan array binding signal (z-score),[18],-0.225
same,glycan array binding signal (z-score),[19],1.06
same,glycan array binding signal (z-score),[20],-0.08
same,glycan array binding signal (z-score),[21],-0.422
same,glycan array binding signal (z-score),[22],-0.006
same,glycan array binding signal (z-score),[23],-0.04
same,glycan array binding signal (z-score),[24],-0.471
same,glycan array binding signal (z-score),[25],0.275
same,glycan array binding signal (z-score),[26],-0.34
same,glycan array binding signal (z-score),[27],-0.629
same,glycan array binding signal (z-score),[28],0.313
same,glycan array binding signal (z-score),[29],-0.527
same,glycan array binding signal (z-score),[30],-0.277
same,glycan array binding signal (z-score),[31],1.16
same,glycan array binding signal (z-score),[32],-0.135
same,glycan array binding signal (z-score),[33],-0.804
same,glycan array binding signal (z-score),[34],0.022
same,glycan array binding signal (z-score),[35],0.889
same,glycan array binding signal (z-score),[36],-1.55
same,glycan array binding signal (z-score),[37],0.531
same,glycan array binding signal (z-score),[38],-0.045

# Reformatted tab-delimited: part of the list above.
binder	measurement	setting	value
B1	glycan array binding signal (z-score)	[6]	-0.335
same	glycan array binding signal (z-score)	[29]	-0.527
